{"source": "the supplement of paper PMC8728848", "binders": {"B1": {"name": "LlpA (Arthrobacter sp) (protein)", "chain": "MGSSHHHHHHSSGLVPRGSHMTLHPETALRPGAAATSPNSRYRLLYQTDGNLVLYGPDGPLWDSGTNGHGAGACIMQADGNLVLYGPNDEYVWDTETDNNPGSRLVIQDDGNAVIYRPDGSPLWATETCQPPGSADSHVLQSGSTLTPTHGIRSANGLYGLLYQTDGNLVFYGPDGPLWDSGTNGRGAGACIMQPDGNLVLYGPHDEYVWDTETDNNPGSRLVIQDDGNAVIYRPDGNPTWVTGTH"}}, "assay_in_all_cases": "glycan array binding signal (z-score within array); higher = stronger binding", "conditions_in_all_cases": "glycan notation: IUPAC condensed, linker removed", "key": {"Gal(a1-3)Gal": {"biological_target": "Gal(a1-3)Gal", "in_short": "(§1)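 From the Consortium for Functional Glycomics database, 3228 arrays were curated, keeping only those whose protein sequence was available. Binding is given as a within-array Z-score averaged across arrays sharing a protein sequence and across linkers. Negative Z-scores can be read as non-binding.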"}, "Gal(a1-3)Gal(b1-3)GlcNAc": {"biological_target": "Gal(a1-3)Gal(b1-3)GlcNAc", "in_short": "as §1"}, "[1]": {"biological_target": "Gal(a1-3)Gal(b1-3)GlcNAc(b1-2)Man", "in_short": "as §1"}, "[2]": {"biological_target": "Gal(a1-3)Gal(b1-3)GlcNAc(b1-2)Man(a1-3)[Gal(a1-3)Gal(b1-3)GlcNAc(b1-2)Man(a1-6)]Man(b1-4)GlcNAc(b1-4)GlcNAc", "in_short": "as §1"}, "[3]": {"biological_target": "Gal(a1-3)Gal(b1-3)GlcNAc(b1-3)GalNAc", "in_short": "as §1"}, "[4]": {"biological_target": "Gal(a1-3)Gal(b1-3)GlcNAc(b1-6)GalNAc", "in_short": "as §1"}, "[5]": {"biological_target": "Gal(a1-3)Gal(b1-3)[Fuc(a1-4)]GlcNAc(b1-2)Man(a1-3)[Gal(a1-3)Gal(b1-3)[Fuc(a1-4)]GlcNAc(b1-2)Man(a1-6)]Man(b1-4)GlcNAc(b1-4)GlcNAc", "in_short": "as §1"}, "Gal(a1-3)Gal(b1-4)Glc": {"biological_target": "Gal(a1-3)Gal(b1-4)Glc", "in_short": "as §1"}, "Gal(a1-3)Gal(b1-4)GlcNAc": {"biological_target": "Gal(a1-3)Gal(b1-4)GlcNAc", "in_short": "as §1"}, "[6]": {"biological_target": "Gal(a1-3)Gal(b1-4)GlcNAc(b1-2)Man", "in_short": "as §1"}, "[7]": {"biological_target": "Gal(a1-3)Gal(b1-4)GlcNAc(b1-2)Man(a1-3)[Gal(a1-3)Gal(b1-4)GlcNAc(b1-2)Man(a1-6)]Man(b1-4)GlcNAc(b1-4)GlcNAc", "in_short": "as §1"}, "[8]": {"biological_target": "Gal(a1-3)Gal(b1-4)GlcNAc(b1-3)GalNAc", "in_short": "as §1"}, "[9]": {"biological_target": "Gal(a1-3)Gal(b1-4)GlcNAc(b1-6)GalNAc", "in_short": "as §1"}, "[10]": {"biological_target": "Gal(a1-3)Gal(b1-4)[Fuc(a1-3)]GlcNAc", "in_short": "as §1"}, "[11]": {"biological_target": "Gal(a1-3)Gal(b1-4)[Fuc(a1-3)]GlcNAc(b1-2)Man(a1-3)[Gal(a1-3)Gal(b1-4)[Fuc(a1-3)]GlcNAc(b1-2)Man(a1-6)]Man(b1-4)GlcNAc(b1-4)GlcNAc", "in_short": "as §1"}, "Gal(a1-3)GalNAc": {"biological_target": "Gal(a1-3)GalNAc", "in_short": "as §1"}, "[12]": {"biological_target": "Gal(a1-3)[Gal(a1-4)]Gal(b1-4)GlcNAc", "in_short": "as §1"}, "[13]": {"biological_target": "Gal(a1-4)Gal(b1-3)GlcNAc(b1-2)Man(a1-3)[Gal(a1-4)Gal(b1-3)GlcNAc(b1-2)Man(a1-6)]Man(b1-4)GlcNAc(b1-4)GlcNAc", "in_short": "as §1"}, "Gal(a1-4)Gal(b1-4)Glc": {"biological_target": "Gal(a1-4)Gal(b1-4)Glc", "in_short": "as §1"}, "Gal(a1-4)Gal(b1-4)GlcNAc": {"biological_target": "Gal(a1-4)Gal(b1-4)GlcNAc", "in_short": "as §1"}, "[14]": {"biological_target": "Gal(a1-4)Gal(b1-4)GlcNAc(b1-2)Man(a1-3)[Gal(a1-4)Gal(b1-4)GlcNAc(b1-2)Man(a1-6)]Man(b1-4)GlcNAc(b1-4)GlcNAc", "in_short": "as §1"}, "[15]": {"biological_target": "Gal(a1-4)Gal(b1-4)GlcNAc(b1-3)Gal(b1-4)Glc", "in_short": "as §1"}, "Gal(a1-4)GlcNAc": {"biological_target": "Gal(a1-4)GlcNAc", "in_short": "as §1"}, "Gal(a1-6)Glc": {"biological_target": "Gal(a1-6)Glc", "in_short": "as §1"}, "Gal(b1-2)Gal": {"biological_target": "Gal(b1-2)Gal", "in_short": "as §1"}, "Gal(b1-3)Gal": {"biological_target": "Gal(b1-3)Gal", "in_short": "as §1"}, "Gal(b1-3)Gal(b1-4)GlcNAc": {"biological_target": "Gal(b1-3)Gal(b1-4)GlcNAc", "in_short": "as §1"}, "Gal(b1-3)GalNAc": {"biological_target": "Gal(b1-3)GalNAc", "in_short": "as §1"}, "[16]": {"biological_target": "Gal(b1-3)GalNAc(a1-3)[Fuc(a1-2)]Gal(b1-4)Glc", "in_short": "as §1"}, "[17]": {"biological_target": "Gal(b1-3)GalNAc(a1-3)[Fuc(a1-2)]Gal(b1-4)GlcNAc", "in_short": "as §1"}, "Gal(b1-3)GalNAc(b1-3)Gal": {"biological_target": "Gal(b1-3)GalNAc(b1-3)Gal", "in_short": "as §1"}, "[18]": {"biological_target": "Gal(b1-3)GalNAc(b1-3)Gal(a1-4)Gal(b1-4)Glc", "in_short": "as §1"}, "[19]": {"biological_target": "Gal(b1-3)GalNAc(b1-4)Gal(b1-4)Glc", "in_short": "as §1"}, "[20]": {"biological_target": "Gal(b1-3)GalNAc(b1-4)[Neu5Ac(a2-3)]Gal(b1-4)Glc", "in_short": "as §1"}, "Gal(b1-3)GlcNAc": {"biological_target": "Gal(b1-3)GlcNAc", "in_short": "as §1"}, "[21]": {"biological_target": "Gal(b1-3)GlcNAc(a1-3)Gal(b1-4)GlcNAc", "in_short": "as §1"}, "[22]": {"biological_target": "Gal(b1-3)GlcNAc(a1-6)Gal(b1-4)GlcNAc", "in_short": "as §1"}, "Gal(b1-3)GlcNAc(b1-2)Man": {"biological_target": "Gal(b1-3)GlcNAc(b1-2)Man", "in_short": "as §1"}}, "note": "The list shows a part of the results."}
{"binder": "B1", "values": [{"measurement": "glycan array binding signal (z-score)", "setting": "Gal(a1-3)Gal", "value": 0.304}, {"measurement": "glycan array binding signal (z-score)", "setting": "Gal(a1-3)Gal(b1-3)GlcNAc", "value": 0.672}, {"measurement": "glycan array binding signal (z-score)", "setting": "[1]", "value": -0.063}, {"measurement": "glycan array binding signal (z-score)", "setting": "[2]", "value": 0.575}, {"measurement": "glycan array binding signal (z-score)", "setting": "[3]", "value": -0.548}, {"measurement": "glycan array binding signal (z-score)", "setting": "[4]", "value": 0.247}, {"measurement": "glycan array binding signal (z-score)", "setting": "[5]", "value": 0.168}, {"measurement": "glycan array binding signal (z-score)", "setting": "Gal(a1-3)Gal(b1-4)Glc", "value": 0.314}, {"measurement": "glycan array binding signal (z-score)", "setting": "Gal(a1-3)Gal(b1-4)GlcNAc", "value": 0.113}, {"measurement": "glycan array binding signal (z-score)", "setting": "[6]", "value": -0.374}, {"measurement": "glycan array binding signal (z-score)", "setting": "[7]", "value": 0.575}, {"measurement": "glycan array binding signal (z-score)", "setting": "[8]", "value": -0.332}, {"measurement": "glycan array binding signal (z-score)", "setting": "[9]", "value": -1.49}, {"measurement": "glycan array binding signal (z-score)", "setting": "[10]", "value": 0.242}, {"measurement": "glycan array binding signal (z-score)", "setting": "[11]", "value": 0.849}, {"measurement": "glycan array binding signal (z-score)", "setting": "Gal(a1-3)GalNAc", "value": -0.594}, {"measurement": "glycan array binding signal (z-score)", "setting": "[12]", "value": 1.43}, {"measurement": "glycan array binding signal (z-score)", "setting": "[13]", "value": -0.794}, {"measurement": "glycan array binding signal (z-score)", "setting": "Gal(a1-4)Gal(b1-4)Glc", "value": 0.629}, {"measurement": "glycan array binding signal (z-score)", "setting": "Gal(a1-4)Gal(b1-4)GlcNAc", "value": 0.322}, {"measurement": "glycan array binding signal (z-score)", "setting": "[14]", "value": 1.09}, {"measurement": "glycan array binding signal (z-score)", "setting": "[15]", "value": 0.049}, {"measurement": "glycan array binding signal (z-score)", "setting": "Gal(a1-4)GlcNAc", "value": -0.048}, {"measurement": "glycan array binding signal (z-score)", "setting": "Gal(a1-6)Glc", "value": -0.727}, {"measurement": "glycan array binding signal (z-score)", "setting": "Gal(b1-2)Gal", "value": -1.45}, {"measurement": "glycan array binding signal (z-score)", "setting": "Gal(b1-3)Gal", "value": 0.289}, {"measurement": "glycan array binding signal (z-score)", "setting": "Gal(b1-3)Gal(b1-4)GlcNAc", "value": 0.043}, {"measurement": "glycan array binding signal (z-score)", "setting": "Gal(b1-3)GalNAc", "value": -0.349}, {"measurement": "glycan array binding signal (z-score)", "setting": "[16]", "value": -0.189}, {"measurement": "glycan array binding signal (z-score)", "setting": "[17]", "value": -0.494}, {"measurement": "glycan array binding signal (z-score)", "setting": "Gal(b1-3)GalNAc(b1-3)Gal", "value": -0.601}, {"measurement": "glycan array binding signal (z-score)", "setting": "[18]", "value": 0.693}, {"measurement": "glycan array binding signal (z-score)", "setting": "[19]", "value": -0.72}, {"measurement": "glycan array binding signal (z-score)", "setting": "[20]", "value": 0.415}, {"measurement": "glycan array binding signal (z-score)", "setting": "Gal(b1-3)GlcNAc", "value": -0.071}, {"measurement": "glycan array binding signal (z-score)", "setting": "[21]", "value": -0.154}, {"measurement": "glycan array binding signal (z-score)", "setting": "[22]", "value": -0.211}, {"measurement": "glycan array binding signal (z-score)", "setting": "Gal(b1-3)GlcNAc(b1-2)Man", "value": 0.816}]}
